{"source": "PubChem BioAssay AID445", "about": "(National Center for Advancing Translational Sciences (NCATS), 2006)", "assay": "IkB Signaling", "conditions": "ABC-DLBCL IkBa-CBG/CBR dual luciferase ratio (green luciferase fused to IkBa over red control in OCI-Ly3 lymphoma cells), 4 h", "summary_of_the_method": "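Luminescence ratio of IκBα-fused green versus native red beetle luciferase in OCI-Ly3 cells, 4 h post-doxycycline with compound; red signal alone, scaled from basal (0%) to zero light (-100%), flagged nonspecific or cytotoxic effects.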", "key": {"[1]": {"conditions": "measured here: control luc red channel unless noted"}}, "note": "The list shows a part of the results. These are further read-outs of the screen, such as a control signal, another cell line or another target. No call is given for them. Most of these compounds were active or inconclusive in the main read-out, so they are no random draw. Words in brackets tell the shape of the fitted curve; partial curves, single points and poor fits give uncertain potencies."}
{"smiles": "CCCCNc1nc(Oc2ccc(OCC)nn2)nc(N2CCOCC2)n1", "values": [{"measurement": "AC50", "setting": "[1]", "value": "20 µM [falling, single point]"}]}
{"smiles": "COc1ccc(Cl)cc1NC(=O)c1c(NCc2ccc(C)o2)sc2c1CCCCC2", "values": [{"measurement": "AC50", "setting": "[1]", "value": "25.1 µM [falling, partial curve]"}]}
{"smiles": "Cc1ccc(S(=O)(=O)C(C#N)c2nc3ccccc3nc2OC(C)C)cc1", "note": "(configuration not stated)", "values": [{"measurement": "AC50", "setting": "[1]", "value": "12.6 µM [falling, partial curve]"}]}
{"smiles": "CCCCOc1ccc(-c2nn(-c3ccccc3)cc2C2NC(=O)NC(C)=C2C(=O)OC)cc1", "note": "(configuration not stated)", "values": [{"measurement": "AC50", "setting": "[1]", "value": "25.1 µM [falling, single point]"}]}
{"smiles": "O=C(C1CC1)N1CCc2cc(Br)cc(S(=O)(=O)N3CCN(c4cccc(C(F)(F)F)c4)CC3)c21", "values": [{"measurement": "AC50", "setting": "[1]", "value": "39.8 µM [rising, single point]"}]}
{"smiles": "CCCCc1n[nH]c2c1/C(=N/O)CC(c1ccccc1)C2", "note": "(configuration not stated)", "values": [{"measurement": "AC50", "setting": "[1]", "value": "15.8 µM [falling, partial curve]"}]}
{"smiles": "COc1ccc(NC(=O)Cn2c(=O)n(-c3ccc(OC)c(OC)c3)c(=O)c3ccccc32)cc1", "values": [{"measurement": "AC50", "setting": "[1]", "value": "0.0398 µM [rising, full curve]"}]}
{"smiles": "CCCCN(C)c1nc2c(S(=O)(=O)c3ccc(CC)cc3)nnn2c2ccc(Cl)cc12", "values": [{"measurement": "AC50", "setting": "[1]", "value": "12.6 µM [falling, partial curve]"}]}
{"smiles": "COc1ccccc1NC(=O)C1=C(C)Nc2c(C(=O)Nc3ccc(F)cc3)cnn2C1c1cccc([N+](=O)[O-])c1", "note": "(configuration not stated)", "values": [{"measurement": "AC50", "setting": "[1]", "value": "12.6 µM [falling, partial curve]"}]}
{"smiles": "CC1CCCN(C(=O)CSc2nnc(-c3c[nH]c4ccccc34)o2)C1", "note": "(configuration not stated)", "values": [{"measurement": "AC50", "setting": "[1]", "value": "31.6 µM [falling, partial curve]"}]}
{"smiles": "CC(=O)c1ccc(N2CCN(c3ncnc4c3c(-c3ccccc3)cn4-c3cccc(C)c3)CC2)cc1", "values": [{"measurement": "AC50", "setting": "[1]", "value": "3.98 µM [rising, partial curve]"}]}
{"smiles": "CCOC(=O)c1ccc(NC(=O)c2c(-c3c(F)cccc3Cl)noc2C)cc1", "values": [{"measurement": "AC50", "setting": "[1]", "value": "15.8 µM [falling, partial curve]"}]}
{"smiles": "CC(C)Sc1oc(-c2cccs2)nc1S(=O)(=O)c1ccc(Cl)cc1", "values": [{"measurement": "AC50", "setting": "[1]", "value": "6.31 µM [falling, full curve]"}]}
{"smiles": "N#Cc1c(NC(NC(=O)c2ccco2)C(=O)c2ccccc2)sc2c1CCCC2", "note": "(configuration not stated)", "values": [{"measurement": "AC50", "setting": "[1]", "value": "6.31 µM [falling, partial curve]"}]}
{"smiles": "Cc1ccc(CNC(=O)c2ccc(Cn3c(=O)c4ccccc4n(CC(=O)Nc4ccc(C)cc4C)c3=O)cc2)cc1", "values": [{"measurement": "AC50", "setting": "measured here: IkB-luc green channel", "value": "6.31 µM [rising, single point]"}, {"measurement": "AC50", "setting": "measured here: control luc red channel", "value": "15.8 µM [falling, single point]"}]}
{"smiles": "COc1cc(NC(=O)c2cc(-c3cccs3)on2)cc(OC)c1OC", "values": [{"measurement": "AC50", "setting": "[1]", "value": "7.94 µM [falling, partial curve]"}]}
